The chains behind the UniProt entries cited, without tags or fusion partners. Where a name states a change or a piece, a line headed by the entry shows the natural chain unless it says otherwise.
UniProt Q9UNA4: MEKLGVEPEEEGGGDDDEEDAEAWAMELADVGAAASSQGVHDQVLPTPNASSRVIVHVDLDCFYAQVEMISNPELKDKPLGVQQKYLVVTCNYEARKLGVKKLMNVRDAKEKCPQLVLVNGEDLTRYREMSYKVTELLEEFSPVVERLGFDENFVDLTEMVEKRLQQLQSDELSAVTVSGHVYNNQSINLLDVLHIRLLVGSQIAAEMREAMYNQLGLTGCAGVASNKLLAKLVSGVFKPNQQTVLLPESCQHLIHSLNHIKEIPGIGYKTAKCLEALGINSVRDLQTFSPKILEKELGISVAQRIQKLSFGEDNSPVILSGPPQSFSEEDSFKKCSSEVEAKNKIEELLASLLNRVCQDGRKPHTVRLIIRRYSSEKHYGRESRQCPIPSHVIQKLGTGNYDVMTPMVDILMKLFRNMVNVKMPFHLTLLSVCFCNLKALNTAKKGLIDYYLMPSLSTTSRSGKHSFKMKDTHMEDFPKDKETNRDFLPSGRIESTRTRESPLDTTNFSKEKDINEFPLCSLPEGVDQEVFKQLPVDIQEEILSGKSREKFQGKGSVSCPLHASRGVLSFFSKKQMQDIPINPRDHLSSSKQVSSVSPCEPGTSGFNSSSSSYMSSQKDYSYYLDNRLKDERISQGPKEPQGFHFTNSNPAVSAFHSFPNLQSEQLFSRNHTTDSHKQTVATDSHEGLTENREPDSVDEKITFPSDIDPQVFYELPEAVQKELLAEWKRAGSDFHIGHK

About 4,000 (1%) of roughly 390,000 compounds were called active. The shares of active, inactive and inconclusive entries below differ from those in the screen. Calls follow the shape of the dose curve; as a rule, active = well fitted inhibition curve with a large enough effect; inconclusive = small, poorly fitted or top-dose-only effect, or another doubt; inactive = no such curve, though single readings can be large or run the other way. Potencies beside an inconclusive call are fits to weak or partial responses and may not hold up.
Each molecule was assayed against DNA polymerase iota (Homo sapiens) (UniProt Q9UNA4) (assay: qHTS for Inhibitors of Polymerase Iota). Settings: Pol iota fluorescent replication assay, 10 min; series mostly up to 115 µM.
Summary of the method: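 Pol iota at 10 nM preincubated 15 min with compounds at room temperature; reaction started with fluorescent substrate, 50 nM final. Fluorescence read kinetically at 0 and 10 min; buffer-only wells as negative control.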
With `O=C(NNC(=O)c1ccc([N+](=O)[O-])o1)c1ccccc1` the Potency was “inactive”. With `CC(=O)O[C@H](COc1c2ccoc2cc2oc(=O)ccc12)C(C)(C)O` the Potency was inconclusive: 89.1 µM [inhibitor, single point]. With `CC(=O)N1[C@H](Cc2ccccc2)C=C[C@]1(C)C(=O)NCc1ccc(C)o1` the Potency was inconclusive: 89.1 µM [inhibitor, single point]. `Cc1nn(-c2ccccc2)c(Cl)c1/C=C1\SC(=S)NC1=O` was tested, and the Potency was “inactive”. With `O=C(/C=C/c1cccs1)c1ccc(NC(=O)c2ccccc2F)cc1` the Potency was inconclusive: 89.1 µM [inhibitor, single point]. `O=C(O)c1cccc(Cn2c(Cl)c(/C=N/Nc3ccccc3)sc2=O)c1` was tested, and the Potency was inconclusive: 39.8 µM [inhibitor, partial curve]. `COc1ccc2nc(SCC(C)=O)c(C#N)cc2c1` was tested, and the Potency was “inactive”. For `O=C(Nc1cn(-c2ccccc2)nc1-c1ccc(Cl)cc1)c1ccccc1`, the Potency was inconclusive: 56.2 µM [inhibitor, partial curve, poor fit]. With `Cc1ccc(NC(=O)Cn2c(=O)n(Cc3ccccc3)c(=O)c3c(C)c(C)sc32)c(C)c1` the Potency was inconclusive: 79.4 µM [inhibitor, single point]. For `CCCCn1c(SCC(=O)c2ccc(O)c(O)c2)nc2ccsc2c1=O`, the Potency was inconclusive: 20 µM [inhibitor, full curve, poor fit]. With `CN1CCN(C2CC(=O)N(c3ccc4c(c3)OCCO4)C2=O)CC1` (centres undefined) the Potency was inconclusive: 7.08 µM [inhibitor, full curve, poor fit]. `COc1cc(/C=C2/SC(=S)N(CC(=O)O)C2=O)ccc1OC(=O)c1cccs1` was tested, and the Potency was inconclusive: 31.6 µM [inhibitor, partial curve, poor fit]. With `CCCOc1ccc(C(=O)Nc2cccc(-c3nc4ccccc4[nH]3)c2)cc1` the Potency was inconclusive: 31.6 µM [inhibitor, single point]. With `COc1cc2c(cc1OC)-c1cc(NCc3ccccn3)nc(=O)n1CC2` the Potency was active: 2.51 µM. With `O=C1Cc2cc(S(=O)(=O)N3CCNCC3)ccc2N1` the Potency was active: 31.6 µM. In the case of `COc1ccc(OC)c(/C=N/NC(=O)c2ccc(Cn3cc([N+](=O)[O-])cn3)o2)c1`, the Potency is reported as inconclusive: 89.1 µM [inhibitor, partial curve]. In the case of `CC1(C)Cc2c(cnn2-c2ccc(F)cc2)C(NC(=O)C2=NNC(=O)CC2)C1` (centres undefined), the Potency is reported as “inactive”. For `O=[N+]([O-])c1ccc(/C=C2\C=Cc3ccccc32)cc1`, the Potency was “inactive”. In the case of `O=c1[nH]cnc2c1C(c1ccccc1)c1c(nc[nH]c1=O)O2`, the Potency is reported as inconclusive: 79.4 µM [inhibitor, partial curve, poor fit].
Potency is read from the fitted curve at half-maximal effect.
